Measurements reported in PubChem BioAssay AID1224826 (NIAID, 2016).
Screen: 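Knock-downs that raise or lower Tnf reporter signal after endotoxin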 (primary screen). System: RAW264.7 G9 macrophages from mouse bearing reporters for p65 (GFP) and the Tnf promoter (mCherry). Reagents: siRNA pool against mouse genes, 100 nM. Time to read-out: 16 h of LPS stimulation, after 2 days of siRNA transfection. Challenge: bacterial lipopolysaccharide (Salmonella minnesota R595), 10 ng/ml. Measured: 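Imaged Tnf reporter mCherry in nuclei, minus background, normalised per plate to the median and expressed as robust z-scores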. Reading the numbers: Tnf reporter robust z-score: higher = stronger Tnf promoter reporter signal after LPS. Hit rule: 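Called active when robust z-score is at most -1.3, matching the median of the Tlr4 knock-down control, or over 3; control wells and wells with under 50 cells never active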. Meaning of the calls: active = Tnf reporter clearly lowered or raised; inactive = no clear change in Tnf reporter.
The whole screen tested about 17,000 reagents; shown is an unselected part. Over the whole deposit, about 1,110 (6.6%) got an active call. 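Active means lowered or raised reporter signal; replicate intensities are raw and not normalised per plate.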 Entries without a mark were called inactive. Reagents against one gene are numbered here. Further read-outs or replicates are left out here.

The first 5 entries as a preview:
target,reagent,Tnf reporter robust z-score,fewer than 50 cells in well
Nol4 (nucleolar protein 4),1,-0.58,enough cells in well
"Trmt10c (tRNA methyltransferase 10C, mitochondrial RNase P subunit)",1,3.42 (active),enough cells in well
"Rabl3 (RAB, member RAS oncogene family-like 3)",1,-0.01,enough cells in well
4930550C14Rik (RIKEN cDNA 4930550C14 gene),1,,fewer than 50 cells per well; well left out of calls
Stxbp6 (syntaxin binding protein 6 (amisyn)),1,0.16,enough cells in well

The listing, repeating the preview:
target,reagent,Tnf reporter robust z-score,fewer than 50 cells in well
Nol4 (nucleolar protein 4),1,-0.58,enough cells in well
"Trmt10c (tRNA methyltransferase 10C, mitochondrial RNase P subunit)",1,3.42 (active),enough cells in well
"Rabl3 (RAB, member RAS oncogene family-like 3)",1,-0.01,enough cells in well
4930550C14Rik (RIKEN cDNA 4930550C14 gene),1,,fewer than 50 cells per well; well left out of calls
Stxbp6 (syntaxin binding protein 6 (amisyn)),1,0.16,enough cells in well
Slc5a6,1,-1.57 (active),enough cells in well
Tmem70 (transmembrane protein 70),1,-0.04,enough cells in well
Spp1 (secreted phosphoprotein 1),1,1.23,enough cells in well
Mpc2,1,,fewer than 50 cells per well; well left out of calls
Pdha2 (pyruvate dehydrogenase E1 alpha 2),1,-1.08,enough cells in well
"Csnk2a2 (casein kinase 2, alpha prime polypeptide)",1,0.5,enough cells in well
Polr1f (RNA polymerase I subunit F),1,,fewer than 50 cells per well; well left out of calls
"Lamb3 (laminin, beta 3)",1,0.16,enough cells in well
Bex3 (brain expressed X-linked 3),1,0.12,enough cells in well
Or4k15b (olfactory receptor family 4 subfamily K member 15B),1,2.46,enough cells in well
Vps37d (vacuolar protein sorting 37D),1,2.51,enough cells in well
E2f4 (E2F transcription factor 4),1,-0.08,enough cells in well
Crip1 (cysteine-rich protein 1),1,-0.79,enough cells in well
B830004H01Rik (RIKEN cDNA B830004H01 gene),1,-0.49,enough cells in well
"Ubash3a (ubiquitin associated and SH3 domain containing, A)",1,0.2,enough cells in well
Kctd9 (potassium channel tetramerisation domain containing 9),1,-1.08,enough cells in well
Uba3 (ubiquitin-like modifier activating enzyme 3),1,-0.52,enough cells in well
Tenm4 (teneurin transmembrane protein 4),1,-0.45,enough cells in well
Elk4 (ETS transcription factor ELK4),1,0.71,enough cells in well
Pkn1 (protein kinase N1),1,1.56,enough cells in well
Pkib,1,,fewer than 50 cells per well; well left out of calls
Vmn1r179 (vomeronasal 1 receptor 179),1,0.83,enough cells in well
Trf (transferrin),1,0.33,enough cells in well
Tspan1 (tetraspanin 1),1,-0.92,enough cells in well
Armc1 (armadillo repeat containing 1),1,0.1,enough cells in well
Ier5 (immediate early response 5),1,6.2 (active),enough cells in well
Piezo2 (piezo-type mechanosensitive ion channel component 2),1,-1.29,enough cells in well
Axl (AXL receptor tyrosine kinase),1,0.37,enough cells in well
Hmgcr (3-hydroxy-3-methylglutaryl-Coenzyme A reductase),1,1.67,enough cells in well
Cdh5 (cadherin 5),1,1.24,enough cells in well
Ikbkg (inhibitor of kappaB kinase gamma),1,-0.91,enough cells in well
"Poldip2 (polymerase (DNA-directed), delta interacting protein 2)",1,,fewer than 50 cells per well; well left out of calls
Pfdn5 (prefoldin 5),1,0.23,enough cells in well
Pfdn5 (prefoldin 5),2,-0.55,enough cells in well
Bnip1 (BCL2/adenovirus E1B interacting protein 1),1,-0.6,enough cells in well
Fem1a (fem 1 homolog a),1,1.6,enough cells in well
Or51k1 (olfactory receptor family 51 subfamily K member 1),1,1.54,enough cells in well
Ankfy1 (ankyrin repeat and FYVE domain containing 1),1,-0.18,enough cells in well
Prl (prolactin),1,-0.35,enough cells in well
Dmtn (dematin actin binding protein),1,-0.24,enough cells in well
Slc6a18,1,,fewer than 50 cells per well; well left out of calls
Or8s10 (olfactory receptor family 8 subfamily S member 1),1,-0.2,enough cells in well
Lrrc1 (leucine rich repeat containing 1),1,-0.52,enough cells in well
"Cemip (cell migration inducing protein, hyaluronan binding)",1,-1.59 (active),enough cells in well
Usp22 (ubiquitin specific peptidase 22),1,-0.52,enough cells in well
Sdsl (serine dehydratase-like),1,1.31,enough cells in well
Eri2 (exoribonuclease 2),1,0.28,enough cells in well
Osbpl10 (oxysterol binding protein-like 10),1,,fewer than 50 cells per well; well left out of calls
Osbpl10 (oxysterol binding protein-like 10),2,0.75,enough cells in well
Galc (galactosylceramidase),1,0.37,enough cells in well
Vstm4 (V-set and transmembrane domain containing 4),1,,fewer than 50 cells per well; well left out of calls
Zkscan6 (zinc finger with KRAB and SCAN domains 6),1,-1.54 (active),enough cells in well
"Chrm5 (cholinergic receptor, muscarinic 5)",1,-0.14,enough cells in well
Usp42 (ubiquitin specific peptidase 42),1,-0.22,enough cells in well
Spsb3 (splA/ryanodine receptor domain and SOCS box containing 3),1,,fewer than 50 cells per well; well left out of calls
Cmtm6 (CKLF-like MARVEL transmembrane domain containing 6),1,-0.62,enough cells in well
Tnp1 (transition protein 1),1,4.03 (active),enough cells in well
Fbxl8 (F-box and leucine-rich repeat protein 8),1,0.77,enough cells in well
Paqr5 (progestin and adipoQ receptor family member V),1,-0.47,enough cells in well
Or1e32 (olfactory receptor family 1 subfamily E member 32),1,3.5 (active),enough cells in well
Nup153 (nucleoporin 153),1,0.27,enough cells in well
Ube2l6 (ubiquitin-conjugating enzyme E2L 6),1,0.03,enough cells in well
Fbxo27 (F-box protein 27),1,,fewer than 50 cells per well; well left out of calls
Prph (peripherin),1,-0.62,enough cells in well
"Tas2r121 (taste receptor, type 2, member 121)",1,0.41,enough cells in well
6030452D12Rik (RIKEN cDNA 6030452D12 gene),1,3.35 (active),enough cells in well
Tmco6 (transmembrane and coiled-coil domains 6),1,,fewer than 50 cells per well; well left out of calls
Rtn1 (reticulon 1),1,-0.85,enough cells in well
Oxr1 (oxidation resistance 1),1,-0.2,enough cells in well
Trip13 (thyroid hormone receptor interactor 13),1,-0.23,enough cells in well
